Laboratory results: PubChem BioAssay AID1224830 (NIAID, 2016)
Screen: 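Genes whose knock-down alters the TNF-alpha reporter response to LPS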 (primary screen). Cell system: human THP-1 monocytic leukaemia cells, TNF dual-luciferase reporter clone, PMA-differentiated to macrophage-like cells. Knock-down reagent: siRNA pool against human genes, 50 nM. Timing: LPS for 4 h, given about 3 days after siRNA transfection. Conditions: bacterial LPS (TLR4 ligand), 10 ng/ml. Detection: 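TNF firefly reporter luminescence divided by renilla, normalised to the plate median, then turned into a robust z-score for each replicate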. Reading the numbers: TNF reporter robust z-score: higher = stronger TNF reporter response to LPS. Hit rule: 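a well is active when its z-score exceeds 2.8 or falls below -1.5; control wells carry no call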.
The whole screen tested about 18,000 reagents; this is a random part of them. Of all reagents, about 2,900 (16%) got an active call. 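Calls are made per well; low scores hint the gene aids the LPS response, high scores that it dampens it.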 Repeated entries: four replicate wells of each siRNA pool.

With ITGB3BP [SID315455232], what was measured?
TNF reporter robust z-score: -0.79; activity call: inactive

Which result is listed for ITGB3BP [SID315455232]?
TNF reporter robust z-score: -1.08; activity call: inactive

Which result is listed for ITGB3BP [SID315455232]?
TNF reporter robust z-score: -0.59; activity call: inactive

With ITGB3BP [SID315455232], what does the deposit list?
TNF reporter robust z-score: -0.78; activity call: inactive

For IMPG2 [SID315456383], how do the results read?
TNF reporter robust z-score: 1.49; activity call: inactive

How did the screen score IMPG2 [SID315456383]?
TNF reporter robust z-score: 0.23; activity call: inactive

With IMPG2 [SID315456383], what was measured?
TNF reporter robust z-score: -0.04; activity call: inactive

With IMPG2 [SID315456383], what does the deposit list?
TNF reporter robust z-score: 0.24; activity call: inactive

What is on record for COLEC11 [SID315459137]?
TNF reporter robust z-score: 0.42; activity call: inactive

What did the screen give for COLEC11 [SID315459137]?
TNF reporter robust z-score: 0.65; activity call: inactive

What did the screen give for COLEC11 [SID315459137]?
TNF reporter robust z-score: 0.34; activity call: inactive

For COLEC11 [SID315459137], what was measured?
TNF reporter robust z-score: 0.17; activity call: inactive

How did the screen score ATL1 [SID315456434]?
TNF reporter robust z-score: 1.6; activity call: inactive

What is on record for ATL1 [SID315456434]?
TNF reporter robust z-score: -0.03; activity call: inactive

For ATL1 [SID315456434], what does the deposit list?
TNF reporter robust z-score: -0.34; activity call: inactive

With ATL1 [SID315456434], what does the deposit list?
TNF reporter robust z-score: -0.17; activity call: inactive

Which result is listed for RBP2 [SID315451080]?
TNF reporter robust z-score: 0.28; activity call: inactive

Which result is listed for RBP2 [SID315451080]?
TNF reporter robust z-score: 5.65; activity call: active

How did the screen score RBP2 [SID315451080]?
TNF reporter robust z-score: 1.32; activity call: inactive

For RBP2 [SID315451080], what was measured?
TNF reporter robust z-score: 0.02; activity call: inactive

What did the screen give for DOCK11 [SID315462086]?
TNF reporter robust z-score: 0.17; activity call: inactive

For DOCK11 [SID315462086], what does the deposit list?
TNF reporter robust z-score: -0.46; activity call: inactive

How did the screen score DOCK11 [SID315462086]?
TNF reporter robust z-score: 0.12; activity call: inactive

With DOCK11 [SID315462086], what does the deposit list?
TNF reporter robust z-score: -0.4; activity call: inactive

What is on record for NEK11 [SID315459516]?
TNF reporter robust z-score: -0.73; activity call: inactive

With NEK11 [SID315459516], how do the results read?
TNF reporter robust z-score: -0.67; activity call: inactive

What is on record for NEK11 [SID315459516]?
TNF reporter robust z-score: -0.09; activity call: inactive

With NEK11 [SID315459516], what was measured?
TNF reporter robust z-score: -0.6; activity call: inactive

For ZBTB3 [SID315459504], what does the deposit list?
TNF reporter robust z-score: -0.73; activity call: inactive

Which result is listed for ZBTB3 [SID315459504]?
TNF reporter robust z-score: -0.38; activity call: inactive

What is on record for ZBTB3 [SID315459504]?
TNF reporter robust z-score: -0.34; activity call: inactive

For ZBTB3 [SID315459504], how do the results read?
TNF reporter robust z-score: -0.05; activity call: inactive

With DENND2C [SID315462784], what was measured?
TNF reporter robust z-score: -0.64; activity call: inactive

How did the screen score DENND2C [SID315462784]?
TNF reporter robust z-score: -0.14; activity call: inactive

Which result is listed for DENND2C [SID315462784]?
TNF reporter robust z-score: -0.38; activity call: inactive

How did the screen score DENND2C [SID315462784]?
TNF reporter robust z-score: -0.37; activity call: inactive

How did the screen score CLIC3 [SID315452979]?
TNF reporter robust z-score: 1.86; activity call: inactive

For CLIC3 [SID315452979], how do the results read?
TNF reporter robust z-score: 1.2; activity call: inactive

With CLIC3 [SID315452979], how do the results read?
TNF reporter robust z-score: 0.97; activity call: inactive

With CLIC3 [SID315452979], what was measured?
TNF reporter robust z-score: 2.35; activity call: inactive

For GSTK1 [SID315464307], what was measured?
activity call: inactive

For GSTK1 [SID315464307], what does the deposit list?
TNF reporter robust z-score: 5.63; activity call: active

For GSTK1 [SID315464307], what was measured?
TNF reporter robust z-score: 3.48; activity call: active

For GSTK1 [SID315464307], how do the results read?
TNF reporter robust z-score: 4.44; activity call: active

What is on record for GSTK1 [SID315464307]?
TNF reporter robust z-score: 6.94; activity call: active

For CCL11 [SID315451334], how do the results read?
TNF reporter robust z-score: -0.1; activity call: inactive

What is on record for CCL11 [SID315451334]?
TNF reporter robust z-score: 0.15; activity call: inactive

With CCL11 [SID315451334], what was measured?
TNF reporter robust z-score: -1.04; activity call: inactive

How did the screen score CCL11 [SID315451334]?
TNF reporter robust z-score: -0.56; activity call: inactive

Which result is listed for ZFPL1 [SID315452183]?
TNF reporter robust z-score: 0.19; activity call: inactive

What did the screen give for ZFPL1 [SID315452183]?
TNF reporter robust z-score: 0.52; activity call: inactive

Which result is listed for ZFPL1 [SID315452183]?
TNF reporter robust z-score: 1.04; activity call: inactive

With ZFPL1 [SID315452183], what was measured?
TNF reporter robust z-score: 1.67; activity call: inactive

Which result is listed for VNN1 [SID315452893]?
TNF reporter robust z-score: 1.15; activity call: inactive

For VNN1 [SID315452893], what does the deposit list?
TNF reporter robust z-score: 1.68; activity call: inactive

Which result is listed for VNN1 [SID315452893]?
TNF reporter robust z-score: 0.33; activity call: inactive

For VNN1 [SID315452893], how do the results read?
TNF reporter robust z-score: 2.34; activity call: inactive

With SIAE [SID315456995], how do the results read?
TNF reporter robust z-score: 0.62; activity call: inactive

With SIAE [SID315456995], what does the deposit list?
TNF reporter robust z-score: 1.54; activity call: inactive

With SIAE [SID315456995], how do the results read?
TNF reporter robust z-score: 0.59; activity call: inactive

With SIAE [SID315456995], what does the deposit list?
TNF reporter robust z-score: 0.73; activity call: inactive

10 of these entries, reformatted:
gene,PubChem SID,TNF reporter robust z-score,activity call
ITGB3BP,SID315455232,-0.59,inactive
ITGB3BP,SID315455232,-0.78,inactive
IMPG2,SID315456383,1.49,inactive
IMPG2,SID315456383,0.23,inactive
IMPG2,SID315456383,-0.04,inactive
IMPG2,SID315456383,0.24,inactive
COLEC11,SID315459137,0.42,inactive
COLEC11,SID315459137,0.65,inactive
COLEC11,SID315459137,0.34,inactive
COLEC11,SID315459137,0.17,inactive
